Reference: US10065943B2, “Pyrrolidine derivatives as angiotensin II type 2 antagonists” (NOVARTIS AG, priority 2015, dated 2018)
At least one structure is not confirmed: it was looked up by name or label, or the drawing left a doubt. Where a SMILES comes first, the peptide text is derived from it. Side-chain parts run from the residue outwards. [ ]: non-standard residue; d: D form. The star is where a group is joined. Tyr(3-I) = N[C@@H](Cc1ccc(O)c(I)c1)C(=O)O; Nicotinoyl = O=C(c1cccnc1)*; Cbz = O=C(OCc1ccccc1)*

Target: T1, human AT2 receptor (Homo sapiens, UniProt P50052)
T1 construct: membranes prepared in house
T1 sequence (P50052 1-363): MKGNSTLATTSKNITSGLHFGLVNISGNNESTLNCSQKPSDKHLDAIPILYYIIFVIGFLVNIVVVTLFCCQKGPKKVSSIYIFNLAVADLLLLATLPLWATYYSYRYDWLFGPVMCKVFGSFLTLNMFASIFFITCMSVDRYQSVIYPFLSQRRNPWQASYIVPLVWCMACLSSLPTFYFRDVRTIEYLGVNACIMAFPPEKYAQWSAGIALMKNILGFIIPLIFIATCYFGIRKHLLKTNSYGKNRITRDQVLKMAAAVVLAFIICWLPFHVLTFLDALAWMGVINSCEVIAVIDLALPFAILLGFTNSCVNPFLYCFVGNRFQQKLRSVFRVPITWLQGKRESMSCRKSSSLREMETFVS
Test: AT2 receptor binding ([125I]CGP 42112A displacement, CHO-K1 membranes)
Conditions: estimate determined in a separate saturation binding experiment
Text: Reagents were purchased from Sigma-Aldrich, unless otherwise specified. Dialyzed fetal bovine serum (FBS) was from Life Technologies (cat. no. 10073772). Valiscreen® human angiotensin AT2 receptor cell line (cat. no. ES-070-C), [^125I]CGP 42112A (cat. no. NEX324025UC) and MicroScint™ 40 (cat. no. 6013641) were purchased from PerkinElmer. CGP 42112A (cat. no. 2569) and PD 123,319 ditrifluoroacetate (cat. no. 1361) were from Tocris Biosciences.
• 1. Growth medium • EX-CELL® CHO DHFR^− medium • 10% FBS, dialysed • 1 mM sodium pyruvate • 2 mM L-glutamine • 2. Harvesting buffer • PBS • 2 mM EDTA • 3. Suspension buffer • 50 mM Tris-HCl, pH 7.4 • 10 mM EDTA • 4. Resuspension buffer • 50 mM Tris-HCl, pH 7.4 • 0.1 mM EDTA • 0.1% sucrose • 5. Binding assay buffer • 50 mM Tris-HCl, pH 7.4 • 5 mM MgCl2 • 1 mM EDTA • 0.1% gelatin • 6. […]

`CC[C@H](C)[C@H](NC(=O)[C@@H]1CCCN1C(=O)[C@H](Cc1c[nH]cn1)NC(=O)[C@H](CCCCNC(=O)[C@H](CCCNC(=N)N)NC(=O)OCc1ccccc1)NC(=O)[C@H](Cc1ccc(O)c(I)c1)NC(=O)c1cccnc1)C(=O)O` [[^125I]CGP 42112A, reference compound] (Nicotinoyl-[Tyr(3-I)]K([Arg-Cbz])HPI-OH; N-terminus and C-terminus assumed) showed a Kd of 0.15 nM.
